This is an account of results in US8748570B2 (priority 2010, dated 2014).

Series [1] in a line: general procedure: Fmoc solid-phase peptide synthesis; Fmoc-Thr(tBu)-PEG-PS resin; HBTU/HOBt-DIPEA. Conditions: whole synthesis, scale 0.20 mmol.
Series [2] is described as follows: general procedure: Fmoc solid-phase peptide synthesis; preloaded Fmoc-Thr(tBu)-PEG-PS resin (B-chain); HBTU/HOBt-DIPEA.
Series [3] is described as follows: general procedure: Fmoc solid-phase peptide synthesis; Fmoc-Asp(OtBu)-Wang resin; HBTU/HOBt-DIPEA. To be noted: whole synthesis, scale 100 μmol.
Series [4] can be described thus: general procedure: Fmoc solid-phase peptide synthesis; Fmoc-β-Asn(OtBu)-Rink Amide resin; HBTU/HOBt-DIPEA. To be noted: whole synthesis, scale 100 μmol.
Setting [5] is: late stage modification step, run 1.

Several values for one entry are separate records, joined by “and”; a condition that tells them apart may be missing. Identical values can stand only once.

Consider “[B19]-Cys(Acm) Human Insulin Glargine B-Chain 64”, for which, in series [1], the “crude HPLC purity” value amounted to 48% purity. Besides, in series [2] (whole synthesis), the “final HPLC purity” value worked out at 96% purity and the isolated yield is on record as 6%.

For the substance “[B19]-Cys(Acm) Human Insulin Lispro B-Chain”, in series [1], the “crude HPLC purity” value amounted to 75%, the crude mass is on record as 630 mg, the “final HPLC purity” value was 94% and the isolated mass came out at 82 mg. This substance had an isolated yield in series [1] of 12%.

The substance “c[A6,11]-Dicarba-[A7]-Cys(Pyr)-[A20]-Cys(Acm) Human Insulin Glargine A-Chain 72” displayed a step yield in series [2] (late stage modification step) of 1%. Further, in series [2] (setting [5]), the “final HPLC purity” value is 56% purity and >99% purity.

Turning to “c[Δ^4A6,11]-Dicarba-[A7]-Cys(^tBu)-[A20]-Cys(Acm) Insulin A-Chain ψ9”, in series [2] (whole synthesis), the “crude HPLC purity” value came to 80% purity.

On to “c[Δ^46,11]-Dicarba-[7]-Cys(Pyr)[20]-Cys(Acm) Insulin A-Chain 10 [10(I)]”, for which the “final HPLC purity” value in series [2] (late stage modification step) was greater than 99%. The substance also returned a step yield in series [2] (setting [5]) of 4%.

Consider “c[Δ^46,11]-Dicarba-[7]-Cys(Pyr)[20]-Cys(Acm) Insulin A-Chain 10 [10(II)]”, for which the “final HPLC purity” value in series [2] (late stage modification step) is given as greater than 99%. In addition, the step yield came to 3% in series [2] (setting [5]) and 34% in series [2] (late stage modification step, run 2).

With “desA1-5-[A6,11]-Agl-[A7]-Cys(^tBu)-[A20]-Cys(Acm)-[A21]-Asp Human Insulin A-Chain”, the “crude HPLC purity” value in series [3] came to 70%.

For the substance “desA1-5-[A6,11]-Agl-[A7]-Cys(^tBu)-[A20]-Cys(Acm)-[A21]-β-Asn Human Insulin A-Chain”, in series [4], the “crude HPLC purity” value stood at 85%.
